Experimental findings from PubChem BioAssay AID493014 (National Center for Advancing Translational Sciences (NCATS), 2011) are described below.

A short description of the test: qHTS Assay to Find Inhibitors of Chronic Active B-Cell Receptor Signaling. The settings on record: ABC-DLBCL IkBa-CBG/CBR reporter, luminescence ratio (green luciferase fused to IkBa over red control in TMD8 lymphoma cells), 4 h. The essentials: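 Doxycycline induced both beetle luciferases in TMD8 lymphoma cells; IKK-driven degradation limits the IkappaBalpha-fused green signal, while red luminescence normalises for cell number and nonspecific effects. Compounds tested up to 46 uM, 4 hrs.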
For orientation: Quantitative high-throughput screening tests each substance at several concentrations.

Where [1] appears, read: measured here: CBR red luminescence, cell number.
Where [2] appears, read: measured here: IkBa-CBG green luminescence.

SMILES strings stand for the structures. The list shows a part of the results. Shown are side measurements of this screen, not its main read-out; they come without a call. Most of these compounds were active or inconclusive in the main read-out, so they are no random draw. Words in brackets tell the shape of the fitted curve; partial curves, single points and poor fits give uncertain potencies.

With `Cc1ccc(N2C(=O)c3ccccc3NC2C(C)Cc2ccc3c(c2)OCO3)cc1` (stereo unspecified), under setting [1], the AC50 is 29.1 µM [falling, single point].

As to `Cc1cc(C(=O)NC(=S)Nc2cccc(C(=O)O)c2C)ccc1[N+](=O)[O-]`, under setting [1], the AC50 was 17.8 µM [falling, single point]. Same read-out and setting: the value for `Cc1c(N=C2SCC(=O)N2/N=C/c2ccccc2)c(=O)n(-c2ccccc2)n1C` was 16.4 µM [falling, partial curve]; that for `CC1CCCC(C)N1CC(O)COc1c(F)cc(Br)cc1F` (stereo unspecified) was 25.1 µM [falling, partial curve, poor fit]; that for `O=C(CSc1nnc(-c2cccnc2)o1)Nc1ccccc1Br` was 0.631 µM [falling, partial curve, poor fit]. Turning to `O=C(/C=C/Nc1ccc(F)c(Cl)c1)c1ccccc1`, the AC50 under setting [1] is 5.01 µM [falling, partial curve]. As to `C=CCn1c(SCC(=O)OCC)nc2cc(C(=O)NCc3ccco3)ccc2c1=O`, the AC50 is 0.206 µM [falling, partial curve, poor fit] under setting [1] and 0.82 µM [rising, full curve, poor fit] under setting [2].

With `NC(=S)N=Nc1c(O)n(Cc2ccc(F)cc2)c2ccccc12`, the AC50 by setting is: under setting [1], 2.59 µM [rising, full curve]; under setting [2], 8.2 µM [falling, partial curve]. In the case of `CC(=O)c1cnc2c(-c3ccc(Cl)cc3)cnn2c1C`, the AC50 under setting [1] is 9.2 µM [rising, partial curve, poor fit]. Turning to `CSc1ccccc1NC(=O)CNCCCN1CCOCC1`, the AC50 under setting [1] is 0.794 µM [rising, full curve, poor fit].

For the compound `CC1(C)CC(=O)C(C(C2=C(O)CC(C)(C)CC2=O)c2ccc(O)c([N+](=O)[O-])c2)=C(O)C1`, under setting [1], the AC50 is 2.82 µM [falling, single point].

With `Cc1ccccc1NC(=O)Cn1c(=O)n(-c2ccc(CC(=O)NCC3CCCO3)cc2)c(=O)c2ccccc21` (stereo unspecified), the AC50 under setting [1] is 6.31 µM [rising, single point].

For the compound `COc1cc(OC)cc(C(=O)N[C@H](C(=O)OCC(=O)Nc2ccc(F)c(F)c2)C(C)C)c1`, the AC50 under setting [1] was 3.66 µM [rising, single point]. Still for that read-out and setting: the value for `Cn1c(=O)n(CCCOc2ccc(Cl)cc2)c2ccccc21` was 2.59 µM [rising, full curve]; that for `Cc1cc(Oc2cc(N)cc([N+](=O)[O-])c2)ccc1Cl` was 18.4 µM [rising, single point]. Still for that read-out and setting: with `CC(C)(C)NC(=O)CN(Cc1cccnc1)C(=O)c1csnn1` the figure was 35.5 µM [falling, single point]. In the case of `Cc1ccc(S(=O)(=O)Nc2ccc(NC(=O)c3c(F)c(F)c(F)c(F)c3F)cc2)cc1`, the half-maximal activity concentration (AC50) under setting [1] is 35.5 µM [falling, single point]. Same read-out and setting: with `O=C1CC(c2ccccc2)C(=O)N1c1cccc(O)c1` (stereo unspecified) the figure was 3.26 µM [rising, single point]; with `CN(C)c1nccc(N(Cc2ccccc2)Cc2ccccc2)c1C#N`, 35.5 µM [falling, single point]. The same measure, in the same setting: with `Oc1c(N=NC(=S)Nc2ccccc2F)c2ccccc2n1Cc1ccccc1Cl` the figure was 2.51 µM [falling, full curve, poor fit]; with `Cc1cccc(N2CCN(C(=O)C3CCN(S(=O)(=O)c4cccc5nsnc45)CC3)CC2C)c1` (stereo unspecified), 29.1 µM [falling, single point]. Same read-out and setting: with `CCCCN(CC)CCNC(=O)c1cc2c(=O)n(C)c3ccccc3c2s1` the figure was 12.6 µM [falling, partial curve]. Regarding `COc1ccc(-c2nn(-c3ccccc3)cc2C=O)cc1[N+](=O)[O-]`, the AC50 under setting [1] was 2.82 µM [rising, partial curve, poor fit]. Regarding `COC(=O)c1ccc(CSc2nnc(-c3ccncc3)o2)cc1`, under setting [1], the half-maximal activity concentration (AC50) was 35.5 µM [rising, single point]. With `COc1ccc(COc2ccc3ccc(=O)oc3c2)cc1`, the AC50 under setting [1] is 4.47 µM [rising, full curve, poor fit].

Consider `Cc1cc2occ(CC(=O)OCC(=O)Nc3sc4c(c3C#N)CCC(C)C4)c2cc1C` (stereo unspecified), for which, under setting [1], the AC50 was 18.4 µM [rising, single point].

For the compound `Cc1[nH]c(=O)[nH]c(=O)c1S(=O)(=O)NCCc1ccc(S(N)(=O)=O)cc1`, the AC50 under setting [1] was 0.184 µM [rising, partial curve, poor fit]. Still for that read-out and setting: with `N#CCC(=O)N/N=C/c1cn(Cc2cccc3ccccc23)c2ccccc12` the figure was 3.55 µM [falling, partial curve, poor fit]. The same measure, in the same setting: the value for `CCCOC(=O)Cn1c(=O)c2cc3c(=O)n(CC(=O)OCCC)c(=O)c3cc2c1=O` was 13 µM [rising, partial curve]; that for `Cc1ccc2c(c1)cc(C)c1nnc(SCC(=O)NCc3ccco3)n12` was 2.82 µM [falling, full curve, poor fit]; that for `COc1ccccc1CNC(=O)COc1ccc(C)cc1` was 4.47 µM [rising, full curve].

With `CCOC(=O)c1ccc(N2CN(CCc3ccccc3)CNC2=S)cc1`, the AC50 under setting [1] is 14.6 µM [falling, single point]. For the compound `NS(=O)(=O)c1cccnc1Nc1cccc(Cl)c1`, under setting [1], the AC50 is 18.4 µM [rising, partial curve]. Still for that read-out and setting: with `CC1=CCC(/C=N\Nc2nnc3c(n2)[nH]c2ccccc23)CC1` (stereo unspecified) the figure was 14.6 µM [falling, single point].

For the compound `CCOc1ccc(-c2cc(N3C(=O)Nc4ccccc4N3O)n[nH]2)cc1`, the AC50 reads like this: under setting [1], 35.5 µM [rising, partial curve, poor fit]; under setting [2], 22.4 µM [falling, single point]. For the compound `COc1ccc(C(C)=O)c(Oc2ccc(S(=O)(=O)N3CCOCC3)cn2)c1`, under setting [1], the AC50 is 29.1 µM [rising, single point]. Still for that read-out and setting: with `Cc1cccc(NC(=O)CN2CCC(NC(=O)C3CCCCC3)CC2)c1C` the figure was 23.1 µM [falling, partial curve, poor fit]; with `CCCCCCC(=O)N1CCC(c2nc3c(nnn3Cc3ccccc3Cl)c(=O)[nH]2)CC1`, 29.1 µM [falling, single point]; with `CC[C@]12c3[nH]c4ccc(Cl)cc4c3CCN1C(=O)[C@@H](CC(=O)NCC13CC4CC(CC(C4)C1)C3)C[C@@H]2C(=O)N1CCN(C(=O)C2CC2)CC1`, 8.2 µM [falling, partial curve]. On the same count and under the same terms, the value for `COc1ccc(NC(=O)Cn2c(CCC(=O)O)ccc2-c2ccccc2)cc1` was 14.1 µM [rising, single point]. Same read-out and setting: the value for `O=C(NCCc1ccc(Cl)cc1Cl)c1cncc(Br)c1` was 35.5 µM [falling, single point]; that for `COc1cccc(NS(=O)(=O)c2ccc(Br)s2)c1` was 6.31 µM [falling, partial curve, poor fit]. With `O=C(c1ccc(-n2c(SCc3cc(F)ccc3F)nc3ccccc3c2=O)cc1)N1CCOCC1`, under setting [1], the AC50 was 1.3 µM [rising, full curve, poor fit]. The same measure, in the same setting: with `CCOC(=O)CN1C(=N)N(c2nc(NC(C)C)nc(OC)n2)CC1=O` the figure was 7.94 µM [falling, partial curve, poor fit].

Regarding `Cc1ccc(/C(C#N)=C\c2ccc(N3CCOCC3)o2)cc1`, the AC50 by setting is: under setting [1], 18.4 µM [falling, partial curve, poor fit]; under setting [2], 6.51 µM [falling, partial curve, poor fit]. For `C#CCOCCOCCOCCNc1nc(N2CCN(C(=O)CCCCCCCCCCNC(=O)Cn3cc(C[C@@H](C)O)nn3)CC2)nc(N2CCN(C(=O)CCCCCCCCCCNC(=O)[C@H](CCCN=C(N)N)n3cc(C[C@@H](C)CC)nn3)CC2)n1`, under setting [1], the AC50 was 3.66 µM [rising, partial curve, poor fit]. As to `COc1ccc(CCNC(=O)C(=O)c2c(C)n(C)c3ccccc23)cc1OC`, the AC50 reads like this: under setting [1], 20 µM [rising, partial curve, poor fit]; under setting [2], 14.1 µM [falling, partial curve]. In the case of `Cc1ccccc1NC(=O)COc1ccc2oc(=O)cc(C)c2c1`, the AC50 under setting [1] was 15.8 µM [falling, partial curve].

As for `COc1ccc(C(=O)/C=C/c2cc(OC)c(O)c(OC)c2)c(F)c1`, under setting [1], the concentration at half-maximal activity (AC50) is 14.6 µM [falling, single point]. The same measure, in the same setting: with `CCn1nc(C)c(/C=N\NC(=O)c2cccc(OC)c2)c1C` the figure was 8.2 µM [falling, partial curve]. Still for that read-out and setting: with `CC(=O)Nc1ccc2c(CSc3nnc(N)s3)cc(=O)oc2c1` the figure was 35.5 µM [falling, single point]; with `O=C(N/N=C/c1cccc2ccccc12)c1cccs1`, 35.5 µM [falling, single point]; with `Cc1ccccc1C(=O)c1cccn1CC(=O)NCCN1CCN(c2cccc(C)c2C)CC1`, 0.058 µM [rising, full curve, poor fit]. On the same count and under the same terms, the value for `N#Cc1ccc(OCc2nnc(-c3ccc([N+](=O)[O-])cc3)o2)cc1` was 0.794 µM [rising, full curve, poor fit]; that for `CCCCSc1nnc(-c2ccc(C)cc2)o1` was 0.116 µM [rising, full curve, poor fit]. Regarding `COC(=O)C1CCN(C(=O)/C=C/c2ccccc2)CC1`, the AC50 under setting [1] was 3.66 µM [falling, partial curve]. On to `CCN(Cc1ccncc1)C(=O)c1ccc(C)o1`, for which the AC50 under setting [1] is 3.16 µM [rising, full curve, poor fit]. Same read-out and setting: with `CN(C)C(=O)CSc1ncccc1-c1nc2ccccc2[nH]1` the figure was 4.47 µM [falling, partial curve]; with `COc1ccc(CCNC(=O)CCc2ccc(S(=O)(=O)NC(C)C)cc2)cc1OC`, 29.1 µM [rising, single point].

Consider `CC(C)CC(NC(=O)CCl)c1ccccc1` (stereo unspecified), for which the AC50 under setting [1] is 18.4 µM [falling, single point]. On the same count and under the same terms, with `O=C(NCC1CCCO1)c1cc2c([nH]c3ccccc32)c(-c2ccc(F)cc2)n1` (stereo unspecified) the figure was 7.08 µM [falling, partial curve, poor fit].

As usually defined, the AC50 is the midpoint of the concentration-response curve, whichever way the signal moves.
